PubChem BioAssay AID1053208 | Peter MacCallum Cancer Centre | 2014
Shown is a random part of about 17,000 reagents tested. Of all reagents, 788 (4.7%) got an active call. 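Calls rest on z-score classes alone; an extra cut-off of viability at most 70% of control was not applied to them.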 Unmarked entries are inactive. Further read-outs or replicates are left out here.

Test: 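Find knock-downs that sensitise mouse osteosarcoma cells to doxorubicin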 (primary screen)
Cells: mouse osteosarcoma cells, early-passage culture from an engineered mouse model of fibroblastic bone tumour
Reagent: siRNA pool against mouse genes, 40 nM
Timing: about 120 h (48 h before drug, then 72 h with drug)
Challenge: doxorubicin 100 nM for 72 h, roughly 30-40% inhibitory dose
Measurement: 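Luminescent ATP signal taken as viability with or without 100 nM doxorubicin for 72 h; mean of two wells set against non-targeting siRNA and turned into robust z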
Reading the numbers: viability z-score with doxorubicin: higher = more viable cells under doxorubicin; viability z-score without drug: higher = more viable cells with knock-down alone; z-score of drug to no-drug ratio: higher = less drug sensitisation by knock-down
Active means: 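Called active if knock-down leaves viability unchanged without drug (z within -2 to 2) but lowers it with doxorubicin (z at or under -2)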

gene | PubChem SID | combined z-score class | viability z-score with doxorubicin | viability z-score without drug | z-score of drug to no-drug ratio
Ttn (titin) | SID152297733 | no change with or without drug | -1.24 | -0.17 | -1.12
Ttn (titin) | SID152331461 | no change with or without drug | 1.35 | -0.17 | 1.69
Dnajb1 (DnaJ heat shock protein family (Hsp40) member B1) | SID152313499 | no change with or without drug | -0.45 | 0.67 | -0.79
Ivl (involucrin) | SID152259381 | no change with or without drug | -1.24 | -0.51 | -0.9
Zfp454 (zinc finger protein 454) | SID152332584 | no change with or without drug | 0.22 | 0.67 | -0.11
Magea6 (MAGE family member A6) | SID152290751 | low cell count with doxorubicin only (active) | -4.05 | -1.18 | -3.6
Med11 (mediator complex subunit 11) | SID152339793 | no change with or without drug | 0.67 | 1.85 | -0.45
Kctd4 (potassium channel tetramerisation domain containing 4) | SID152281694 | no change with or without drug | -1.12 | 0.17 | -1.12
Zfp322a (zinc finger protein 322A) | SID152263262 | no change with or without drug | 0.9 | 1.85 | -0.22
Pyroxd1 (pyridine nucleotide-disulphide oxidoreductase domain 1) | SID152334061 | no change with or without drug | 0 | -0.34 | 0.34
Areg (amphiregulin) | SID152327256 | no change with or without drug | 0.34 | 0.84 | -0.11
Cfap68 (cilia and flagella associated protein 68) | SID152298211 | no change with or without drug | 1.12 | -0.51 | 1.69

The list goes on, starting with the last 2 of the part before.
gene | PubChem SID | combined z-score class | viability z-score with doxorubicin | viability z-score without drug | z-score of drug to no-drug ratio
Areg (amphiregulin) | SID152327256 | no change with or without drug | 0.34 | 0.84 | -0.11
Cfap68 (cilia and flagella associated protein 68) | SID152298211 | no change with or without drug | 1.12 | -0.51 | 1.69
Mdm2 (MDM2 proto-oncogene) | SID152289133 | no change with or without drug | 1.35 | -0.17 | 1.69
Rnf167 (ring finger protein 167) | SID152334668 | low cell count without drug only | -1.12 | -4.22 | 2.47
Mafa (MAF bZIP transcription factor A) | SID152276349 | no change with or without drug | -0.22 | -0.17 | 0
Atg10 (autophagy related 10) | SID152340439 | no change with or without drug | -1.69 | -0.84 | -1.12
Sugp2 (SURP and G patch domain containing 2) | SID152285236 | no change with or without drug | 1.12 | -0.17 | 1.46
Scd4 (stearoyl-coenzyme A desaturase 4) | SID152294461 | no change with or without drug | -0.34 | 1.35 | -1.12
Med9 (mediator complex subunit 9) | SID152299405 | no change with or without drug | 1.12 | 0.17 | 1.12
Sec14l4 (SEC14-like lipid binding 4) | SID152294635 | no change with or without drug | -1.69 | -1.18 | -0.9
Asb13 (ankyrin repeat and SOCS box-containing 13) | SID152329630 | no change with or without drug | 0 | -0.17 | 0.22
Med26 (mediator complex subunit 26) | SID152324971 | low cell count with doxorubicin only (active) | -3.6 | -0.84 | -3.26
A730089K16Rik (RIKEN cDNA A730089K16 gene) | SID152287509 | no change with or without drug | -1.12 | -1.18 | -0.34
Sstr3 (somatostatin receptor 3) | SID152299362 | no change with or without drug | -0.22 | -0.67 | 0.34
Nxt2 (nuclear transport factor 2-like export factor 2) | SID152270727 | no change with or without drug | 0.11 | 0.67 | -0.22
Ackr4 (atypical chemokine receptor 4) | SID152323524 | no change with or without drug | -1.57 | 0.17 | -1.69
Or6c5 (olfactory receptor family 6 subfamily C member 5) | SID152331326 | no change with or without drug | 1.57 | 1.52 | 0.67
Add3 (adducin 3) | SID152268233 | high cell count with and without drug | 2.14 | 3.37 | 0
H2al1m (H2A histone family member L1M) | SID152296270 | no change with or without drug | 0.22 | 0.51 | 0
Arsb (arylsulfatase B) | SID152310163 | low cell count without drug only | -0.67 | -2.19 | 1.01
Arsb (arylsulfatase B) | SID152313043 | high cell count with and without drug | 2.14 | 2.53 | 0.56
Nat8f1 (N-acetyltransferase 8 (GCN5-related) family member 1) | SID152300439 | low cell count with doxorubicin only (active) | -2.36 | -1.52 | -1.46
Zdhhc5 (zinc finger, DHHC domain containing 5) | SID152299194 | no change with or without drug | -0.45 | 1.18 | -1.12
Hilpda (hypoxia inducible lipid droplet associated) | SID152275753 | high cell count without drug only | 0.67 | 3.04 | -1.12
